In article doi:10.1101/2021.06.07.447311:
Results are given in words; binding and its absence hold for the method and conditions named. Binding calls can cover weak binding; strength is not graded here. For some assays here: In cells and extracts the contact can be indirect. One block for each molecule: values may come before it.

Assays:
[1] = molecular target: T1, amyloid protein TasA of Bacillus subtilis (B. subtilis) (UniProt P54507); test: pull-down
T1 sequence: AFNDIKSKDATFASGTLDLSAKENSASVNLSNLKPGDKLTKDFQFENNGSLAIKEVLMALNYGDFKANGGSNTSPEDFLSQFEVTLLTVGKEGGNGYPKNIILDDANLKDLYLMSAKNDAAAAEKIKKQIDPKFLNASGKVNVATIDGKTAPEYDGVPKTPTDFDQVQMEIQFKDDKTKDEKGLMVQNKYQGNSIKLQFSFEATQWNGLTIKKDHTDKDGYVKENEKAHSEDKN

[2] = molecular target: oleosin 1 from Arabidopsis thaliana (Arabidopsis thaliana); test: far-Western, overlay or dot blot

binding [1]: binds
Molecule: oleosin from melon seeds

binding [2]: binds
B1: amyloid protein TasA of Bacillus subtilis (protein, UniProt P54507 28-261)
chain: T1 sequence
